Experimental data: doi:10.1101/815886
Residue numbers refer to the chain shown, from its start. Results are given in words; binding and its absence hold for the method and conditions named. In cells and extracts the contact can be indirect. Some results given as binding are weak or reduced against the parent protein; the word gives no strength. Tags and fused reporters may be left off the sequences shown.

Tests used:
Experiment in all cases: co-IP
[1] = biological target: T1, FLAG-CTC1 V967A/S979A/H980A (human) (UniProt Q2NKJ3)
T1 sequence: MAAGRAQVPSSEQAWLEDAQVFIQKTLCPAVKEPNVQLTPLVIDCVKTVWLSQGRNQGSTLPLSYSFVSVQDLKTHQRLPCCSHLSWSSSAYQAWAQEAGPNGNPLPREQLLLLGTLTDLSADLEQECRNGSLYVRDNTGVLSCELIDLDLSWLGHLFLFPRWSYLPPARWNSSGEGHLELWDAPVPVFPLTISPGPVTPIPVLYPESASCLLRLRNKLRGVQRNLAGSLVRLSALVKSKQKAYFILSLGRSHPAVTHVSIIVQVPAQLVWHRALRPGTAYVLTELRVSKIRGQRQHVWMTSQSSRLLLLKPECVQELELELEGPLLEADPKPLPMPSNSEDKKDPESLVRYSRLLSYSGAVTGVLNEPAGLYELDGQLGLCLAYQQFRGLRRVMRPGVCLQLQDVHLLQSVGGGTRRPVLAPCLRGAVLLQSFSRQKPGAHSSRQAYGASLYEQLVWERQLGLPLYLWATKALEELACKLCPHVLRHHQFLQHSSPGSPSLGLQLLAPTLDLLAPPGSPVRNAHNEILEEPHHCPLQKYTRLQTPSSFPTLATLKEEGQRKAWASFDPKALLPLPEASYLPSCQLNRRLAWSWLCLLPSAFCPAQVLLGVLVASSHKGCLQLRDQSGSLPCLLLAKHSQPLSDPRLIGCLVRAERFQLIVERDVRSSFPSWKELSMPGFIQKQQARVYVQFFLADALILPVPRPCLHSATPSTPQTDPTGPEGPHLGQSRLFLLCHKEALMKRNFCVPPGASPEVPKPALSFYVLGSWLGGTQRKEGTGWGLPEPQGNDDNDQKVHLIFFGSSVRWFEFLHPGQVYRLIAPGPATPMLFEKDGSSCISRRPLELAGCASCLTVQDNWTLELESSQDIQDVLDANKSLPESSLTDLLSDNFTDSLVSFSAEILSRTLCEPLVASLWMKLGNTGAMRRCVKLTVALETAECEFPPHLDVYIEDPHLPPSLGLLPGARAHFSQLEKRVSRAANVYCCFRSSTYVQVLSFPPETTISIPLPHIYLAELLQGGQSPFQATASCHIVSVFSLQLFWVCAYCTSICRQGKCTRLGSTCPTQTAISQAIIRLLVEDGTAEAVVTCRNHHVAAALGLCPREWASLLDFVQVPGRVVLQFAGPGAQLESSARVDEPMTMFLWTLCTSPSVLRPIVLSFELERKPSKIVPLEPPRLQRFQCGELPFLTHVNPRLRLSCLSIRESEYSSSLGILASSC

[2] = biological target: T2, FLAG-CTC1 K1164E/K1167E (human) (UniProt Q2NKJ3)
T2 sequence: T1 sequence with A967V, A979S, A980H, K1164E, K1167E

[3] = biological target: T3, FLAG-CTC1 R1193E/R1195E (human) (UniProt Q2NKJ3)
T3 sequence: T1 sequence with A967V, A979S, A980H, R1193E, R1195E

HA-TEN1 (human) = biological target: T4, HA-TEN1 (human) (UniProt Q86WV5)
T4 sequence: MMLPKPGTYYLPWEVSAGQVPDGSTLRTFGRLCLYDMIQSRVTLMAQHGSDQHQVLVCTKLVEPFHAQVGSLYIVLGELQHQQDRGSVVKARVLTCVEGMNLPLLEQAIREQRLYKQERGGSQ

Measured: binding

B1: Myc-STN1 (protein, UniProt Q9H668 1-368)
chain: MQPGSSRCEEETPSLLWGLDPVFLAFAKLYIRDILDMKESRQVPGVFLYNGHPIKQVDVLGTVIGVRERDAFYSYGVDDSTGVINCICWKKLNTESVSAAPSAARELSLTSQLKKLQETIEQKTKIEIGDTIRVRGSIRTYREEREIHATTYYKVDDPVWNIQIARMLELPTIYRKVYDQPFHSSALEKEEALSNPGALDLPSLTSLLSEKAKEFLMENRVQSFYQQELEMVESLLSLANQPVIHSASSDQVNFKKDTTSKAIHSIFKNAIQLLQEKGLVFQKDDGFDNLYYVTREDKDLHRKIHRIIQQDCQKPNHMEKGCHFLHILACARLSIRPGLSEAVLQQVLELLEDQSDIVSTMEHYYTAF
binds: all assays above
